From publication PMC7031342
Results are given in words; binding and its absence hold for the method and conditions named. In cells and extracts the contact can be indirect. Here binding means that the protein was enriched with, or labelled near, the bait; the list need not be complete. No binding means not detected with the bait.

Chains of the proteins cited; added tags and fusions are not shown.
UniProt Q00765: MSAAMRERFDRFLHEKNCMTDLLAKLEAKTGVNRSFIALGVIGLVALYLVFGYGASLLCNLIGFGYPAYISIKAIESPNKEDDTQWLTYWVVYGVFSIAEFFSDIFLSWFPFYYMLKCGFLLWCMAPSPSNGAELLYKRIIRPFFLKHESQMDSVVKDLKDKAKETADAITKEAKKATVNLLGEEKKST
UniProt P04406: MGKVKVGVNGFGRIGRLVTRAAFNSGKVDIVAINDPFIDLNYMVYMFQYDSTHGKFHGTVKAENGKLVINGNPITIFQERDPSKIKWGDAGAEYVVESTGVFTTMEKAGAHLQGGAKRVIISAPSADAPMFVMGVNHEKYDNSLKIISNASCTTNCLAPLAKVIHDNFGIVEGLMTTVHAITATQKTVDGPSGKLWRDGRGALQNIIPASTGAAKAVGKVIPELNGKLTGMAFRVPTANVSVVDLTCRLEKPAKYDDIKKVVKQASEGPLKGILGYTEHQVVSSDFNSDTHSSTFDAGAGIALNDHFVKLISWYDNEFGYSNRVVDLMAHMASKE
UniProt Q07065: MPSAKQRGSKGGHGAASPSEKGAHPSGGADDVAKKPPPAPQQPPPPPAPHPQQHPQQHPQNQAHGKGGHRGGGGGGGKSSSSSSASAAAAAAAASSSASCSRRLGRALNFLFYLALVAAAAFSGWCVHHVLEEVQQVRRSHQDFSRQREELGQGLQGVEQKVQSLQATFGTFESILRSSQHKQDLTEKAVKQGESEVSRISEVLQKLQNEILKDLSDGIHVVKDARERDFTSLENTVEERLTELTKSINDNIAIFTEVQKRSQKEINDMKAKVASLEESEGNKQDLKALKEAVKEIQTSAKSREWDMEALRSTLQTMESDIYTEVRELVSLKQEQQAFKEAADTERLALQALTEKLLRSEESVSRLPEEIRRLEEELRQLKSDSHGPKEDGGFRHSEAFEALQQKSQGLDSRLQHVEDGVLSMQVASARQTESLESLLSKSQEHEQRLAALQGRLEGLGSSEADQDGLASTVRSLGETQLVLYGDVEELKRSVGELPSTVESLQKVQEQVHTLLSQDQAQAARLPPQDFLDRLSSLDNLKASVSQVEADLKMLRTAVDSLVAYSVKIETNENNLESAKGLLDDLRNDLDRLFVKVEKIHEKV
UniProt O95197: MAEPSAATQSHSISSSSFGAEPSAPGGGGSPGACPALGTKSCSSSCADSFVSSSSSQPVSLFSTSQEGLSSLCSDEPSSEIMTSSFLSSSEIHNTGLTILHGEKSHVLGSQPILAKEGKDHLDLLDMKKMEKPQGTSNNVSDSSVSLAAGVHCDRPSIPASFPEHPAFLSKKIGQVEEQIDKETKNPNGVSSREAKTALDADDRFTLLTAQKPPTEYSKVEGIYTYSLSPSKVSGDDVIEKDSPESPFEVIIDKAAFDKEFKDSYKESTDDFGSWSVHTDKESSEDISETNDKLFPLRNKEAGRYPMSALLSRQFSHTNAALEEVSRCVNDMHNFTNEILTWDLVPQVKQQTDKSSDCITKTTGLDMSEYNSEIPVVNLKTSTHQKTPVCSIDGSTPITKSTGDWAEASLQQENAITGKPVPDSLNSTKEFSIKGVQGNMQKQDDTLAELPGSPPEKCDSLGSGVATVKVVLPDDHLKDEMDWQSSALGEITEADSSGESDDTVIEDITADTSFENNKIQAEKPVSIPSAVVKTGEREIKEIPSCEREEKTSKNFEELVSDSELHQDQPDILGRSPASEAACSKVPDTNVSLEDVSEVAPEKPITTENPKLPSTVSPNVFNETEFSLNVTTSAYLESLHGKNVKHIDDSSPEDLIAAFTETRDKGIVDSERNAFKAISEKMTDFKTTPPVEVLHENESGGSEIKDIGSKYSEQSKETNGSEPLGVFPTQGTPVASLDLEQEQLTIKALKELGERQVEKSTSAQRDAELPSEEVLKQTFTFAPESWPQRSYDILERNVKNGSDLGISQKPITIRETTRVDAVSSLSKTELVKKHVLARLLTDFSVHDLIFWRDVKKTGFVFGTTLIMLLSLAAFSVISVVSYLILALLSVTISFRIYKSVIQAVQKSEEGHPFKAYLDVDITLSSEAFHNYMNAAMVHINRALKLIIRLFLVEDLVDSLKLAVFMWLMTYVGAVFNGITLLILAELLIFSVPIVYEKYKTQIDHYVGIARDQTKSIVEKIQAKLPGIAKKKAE
UniProt P60660: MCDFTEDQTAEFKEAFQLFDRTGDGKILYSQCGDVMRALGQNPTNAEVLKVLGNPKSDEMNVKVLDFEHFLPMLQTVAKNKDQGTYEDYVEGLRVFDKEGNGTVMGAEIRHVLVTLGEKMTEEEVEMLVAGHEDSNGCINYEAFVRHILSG

Biological target: CnVA-tagged (StrepII-6xHis, 3xFlag) REEP5 (human) (UniProt Q00765)
Experiment: affinity purification with mass spectrometry; nickel-His purification of CnVA-REEP5 from transfected HEK293 cells against untransfected controls; Q Exactive Plus, iBAQ

binding	Substance
no binding	GAPDH (from UniProt P04406 1-335)
binds	CKAP4 (HEK293) (from UniProt Q07065 1-602)
binds	RTN3 (from UniProt O95197 1-1032)
no binding	MYL6 (from UniProt P60660 1-151)
